# Publication doi:10.1101/2025.08.31.673341
# Target: T1, INDUCER OF CBF EXPRESSION 1 (ICE1), BiFC construct (UniProt Q9LSE2)
# T1 sequence: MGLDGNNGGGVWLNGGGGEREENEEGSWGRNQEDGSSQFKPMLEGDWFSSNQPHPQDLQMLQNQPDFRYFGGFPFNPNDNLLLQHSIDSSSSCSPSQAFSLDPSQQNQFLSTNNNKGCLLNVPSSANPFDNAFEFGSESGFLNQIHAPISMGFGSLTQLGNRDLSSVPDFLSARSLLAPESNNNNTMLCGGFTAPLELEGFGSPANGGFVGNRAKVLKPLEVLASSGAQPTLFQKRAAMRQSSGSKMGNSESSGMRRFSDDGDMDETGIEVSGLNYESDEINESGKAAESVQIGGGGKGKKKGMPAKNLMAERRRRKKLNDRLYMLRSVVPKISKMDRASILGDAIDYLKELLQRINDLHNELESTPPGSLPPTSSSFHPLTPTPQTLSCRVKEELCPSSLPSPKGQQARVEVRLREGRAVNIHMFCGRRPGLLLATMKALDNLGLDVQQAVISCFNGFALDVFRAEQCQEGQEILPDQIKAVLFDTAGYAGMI
# Test: split reporter
substance,measurement,value
U-box-deleted PUB19 (PUB19dU) fused to the C-terminal part of YFP (YFPc) (Arabidopsis) (domain or fragment),binding,binds

# No constants are given. Whether binding was seen depends on the method and setting. In cells and extracts the contact can be indirect. Binding can be weak; no strength is given.
